# Data reported in PubChem BioAssay AID2685 (National Center for Advancing Translational Sciences (NCATS), 2010).
# The other results are listed elsewhere or left out. These are further read-outs of the screen, such as a control signal, another cell line or another target. No call is given for them. The list favours compounds with an active or inconclusive main result. Potencies come from curve fits of mixed quality, noted in brackets.
# Test: qHTS Assay for Lipid Storage Modulators in Drosophila S3 Cells;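 for cell number change: cells counted by Cell Tracker Red CMTPX staining in the red channel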
# Conditions: BODIPY lipid droplet fluorescence, 18-24 h; for cell number change: measured here: cell count max response, cells fed with added oleic acid
# Procedure, shortened: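 Drosophila S3 cells loaded with oleic acid (400 uM, as added) and compounds at several concentrations; lipid droplets imaged by 488-nm laser-scanning cytometry, 500–530 nm intensity and object ratio to cell channel. Percent activity normalized to 20 uM Triacsin C.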
# [1] = measured here: cell number channel AC50, cells fed with added oleic acid
# [2] = measured here: lipid fluorescence (Fed channel) AC50, cells fed with added oleic acid
SMILES,cell number change [%],AC50 [1],AC50 [2]
COc1ccc([N+](=O)[O-])cc1NC(=O)Cn1ccc(C(F)(F)F)n1,24.2,"1.16 µM [rising, full curve, poor fit]","1.64 µM [rising, full curve]"
O=C(COc1coc(CN2CCCc3ccccc32)cc1=O)Nc1cccc([N+](=O)[O-])c1,-53.5,"10.3 µM [falling, partial curve]","29.1 µM [falling, single point]"
CCc1oc2c(C)c(O)ccc2c(=O)c1-c1ccc2ccccc2n1,1.66,,"23.1 µM [falling, partial curve, poor fit]"
CCCCOC(=O)Nc1sc2c(c1C(=O)OC)CCC2,-14.4,,
NC(=O)Cn1cnc(-c2ccccc2)c1,-2.74,,"1.16 µM [falling, full curve, poor fit]"
Oc1ccccc1C(=S)N1CCCC1,1.46,,"29.1 µM [rising, single point]"
COc1cccc(OC)c1C(=O)Nc1cccc2c1CCCC2,1.09,,"29.1 µM [rising, single point]"
CCN(Cc1ccccc1)C(=O)CN1C(=O)c2ccccc2C1=O,3.97,,
CCOP(=O)(c1c(F)c(F)c(F)c(F)c1F)C1(O)CCCCC1 (stereo not given),-33.6,"11.6 µM [falling, partial curve, poor fit]","8.2 µM [falling, partial curve]"
O=C(CSc1nc(N2CCCCC2)nc(N2CCCCC2)n1)c1ccccc1,-5.62,,"29.1 µM [rising, partial curve, poor fit]"
CCOC(=O)C1CCN(C(=O)CNS(=O)(=O)c2cccs2)CC1,-23.3,"0.651 µM [falling, full curve, poor fit]","3.66 µM [falling, full curve]"
COc1ccc(CN2CCNC(=O)C2CC(=O)N2CCCN(C(C)=O)CC2)c(OC)c1 (stereo not given),18,,
COc1ccc(NC(=O)c2nc3nccc(C)n3n2)cn1,92,"29.1 µM [rising, single point]",
COc1ccc(CCNC(=O)C2CCN(S(=O)(=O)c3cccc4cccnc34)CC2)cc1OC,-36.3,"14.6 µM [falling, single point]",
CC(C(=O)NCc1ccccc1)n1cc([N+](=O)[O-])cn1 (stereo not given),-12.1,,"6.51 µM [falling, single point]"
Cc1cccnc1NC(=O)C1CCCN(S(=O)(=O)c2ccc3c(c2)oc(=O)n3C)C1 (stereo not given),6.72,,
COC(CNS(=O)(=O)c1ccc(Cl)cc1)c1ccccc1 (stereo not given),-23.4,,"29.1 µM [falling, single point]"
CN(C)S(=O)(=O)c1ccc(C(=O)Nc2ccc(F)cc2F)cc1,17.5,,
CC1(C)CC(c2nc(-c3ccc(Cl)cc3)cs2)CCS1 (stereo not given),,"0.58 µM [rising, partial curve]","4.11 µM [rising, single point]"
O=C1O[C@@H](c2ccc(O)cc2)Cc2cccc(O)c21,-3.49,,"0.00651 µM [rising, full curve, poor fit]"

# Full records, looked up by structure.
# `CC(C(=O)NCc1ccccc1)n1cc([N+](=O)[O-])cn1` (stereo not given) reads cell number change [%]: -12.1; AC50 [2]: 6.51 µM [falling, single point]
# `COC(CNS(=O)(=O)c1ccc(Cl)cc1)c1ccccc1` (stereo not given) reads cell number change [%]: -23.4; AC50 [2]: 29.1 µM [falling, single point]
# `COc1ccc(CCNC(=O)C2CCN(S(=O)(=O)c3cccc4cccnc34)CC2)cc1OC` reads cell number change [%]: -36.3; AC50 [1]: 14.6 µM [falling, single point]

# (further entries)

SMILES,cell number change [%],AC50 [1],AC50 [2]
N=c1oc2ccccc2cc1C(=O)Nc1cccc(F)c1,1.42,,"29.1 µM [rising, single point]"
COc1ccc(-c2csc3ncnc(N4CCN(S(=O)(=O)c5ccc(C(C)=O)cc5)CC4)c23)cc1,-36.3,"32.6 µM [falling, single point]",
CCC(=O)N1CCN(c2ccc(NC(=S)NC(=O)c3ccc(OC)c([N+](=O)[O-])c3)cc2)CC1,-61.3,"11.6 µM [falling, partial curve]","8.2 µM [falling, partial curve]"
O=C(O)CCCc1c(-[n+]2ccccc2)[nH]c2ccccc12,21.9,,
CC(=O)Nc1cc(NC(C)=O)c(N=Nc2ccccc2)cc1C,5.76,,"2.91 µM [rising, single point]"
Cc1ccc(-n2cc(C(C)(C)C)[nH]c2=S)cc1,-23.6,,"29.1 µM [falling, single point]"
O=C(N/N=C/c1c[nH]c2ccccc12)C1CC1(c1ccccc1)c1ccccc1 (stereo not given),-72.3,"18.4 µM [falling, partial curve]","18.4 µM [falling, single point]"
O=C1CCC(=O)N1CCC(c1ccc(F)cc1)c1ccco1 (stereo not given),-4.03,"7.31 µM [falling, partial curve, poor fit]","0.13 µM [falling, full curve, poor fit]"
Cc1cc(C(=O)OCC(=O)N2CCCC2)c2ccccc2n1,124,"11.6 µM [rising, partial curve]",
N#Cc1c(Nc2ccccc2C(F)(F)F)s[nH]c1=O,-59.8,"16.4 µM [falling, partial curve]","16.4 µM [falling, partial curve, poor fit]"
COc1cccc(/C=N/n2c(N)nc3ccccc32)c1OC,-18.3,,
O=C(Cc1ccc(Cl)c(Cl)c1)OCC(=O)c1ccc[nH]1,-27.3,,"0.206 µM [rising, full curve, poor fit]"
CC(CCc1ccccc1)NC(=O)C1CCN(S(=O)(=O)N2CCCCC2)CC1 (stereo not given),6.88,,"25.9 µM [rising, single point]"
CN(C)CC(C)(C)CNC(=S)NCc1ccc2c(c1)OCO2,0.628,,"1.84 µM [rising, partial curve]"
COCCNC(=O)c1ccc2c(c1)ncn2-c1cccc(C)c1,,,"5.8 µM [rising, full curve, poor fit]"
CC(C)c1ccccc1NC(=O)COc1ccc(C(=O)NCCc2ccccc2)cc1,-34.3,"16.4 µM [falling, single point]","18.4 µM [falling, single point]"
O=C(O)CCCN1C(=O)/C(=C\c2ccc(-c3nc4ccccc4s3)o2)SC1=S,18.4,,
Cc1ccc(-c2csc(N3N=C(c4ccccc4)/C(=C\c4ccc(N(C)C)cc4)C3=O)n2)cc1,-22.1,,
NC(=O)c1ccsc1NC(=O)c1nc(-c2ccccc2)n(-c2ccccc2)n1,35.1,"2.31 µM [rising, partial curve]","0.58 µM [rising, single point]"
O=C(Cn1c2ccc(F)cc2c2nc3n(c(=O)c21)CCS3)N1CCCC1,-19,,

SMILES,cell number change [%],AC50 [1],AC50 [2]
O=C(N/N=C/c1cc2ccccc2nc1Cl)[C@H]1C[C@@H]1c1ccccc1,-9.51,"3.66 µM [rising, single point]","4.11 µM [rising, partial curve]"
CCOC(=O)c1cc(-c2ccccc2)sc1NC(=S)Nc1cccc(C)n1,30.8,"1.46 µM [rising, partial curve, poor fit]",
COc1ccc(Cc2nnc(NC(=O)c3cccs3)s2)cc1OC,2.84,,"5.8 µM [falling, single point]"
COc1cc2c(cc1OC)/C(=C/C(=O)c1ccc(OC)c([N+](=O)[O-])c1)NCC2,41.1,"1.16 µM [rising, single point]","20.6 µM [rising, partial curve, poor fit]"
Cc1occc1C(=O)NCCc1cccc(Cl)c1,-4.87,,
CCCCCC1CC(/C(C)=N/NC(N)=O)OC1=O (stereo not given),4.87,,"0.82 µM [rising, full curve, poor fit]"
Cc1cc(-n2c(C)cc(C(=O)CN3C(=O)NC4(CCCCCC4)C3=O)c2C)no1,0.736,,"6.51 µM [falling, single point]"
Nc1cc(OC(=O)c2c(F)cccc2Cl)nn1S(=O)(=O)c1ccccc1,,,"1.16 µM [falling, single point]"
CC1(C)CC(=O)C2=C(C1)OC(N)=C(C#N)C21CCN(Cc2ccccc2)CC1,,"4.11 µM [falling, single point]","5.8 µM [falling, single point]"
N=c1c(C(=O)NCc2ccc3c(c2)OCO3)cc2c(=O)n3ccccc3nc2n1CC1CCCO1 (stereo not given),12.5,,
O=C(N/N=C\c1cccc(Cl)c1)c1ccc(Cn2cccn2)o1,,,"1.84 µM [rising, partial curve]"
CCN(CC)CCNC(=O)c1cn(CCOC)c(=O)c2c1c1ccccc1n2C,18.4,,
N=c1c(S(=O)(=O)c2ccccc2)cc2c(=O)n3ccccc3nc2n1C1CCCC1,36.8,"29.1 µM [rising, single point]","35.5 µM [rising, single point]"
CC(C)(C)NC(=O)c1ccccc1NC(=O)C1CC(=O)N(C2CCCCC2)C1 (stereo not given),-13.3,,"29.1 µM [falling, partial curve, poor fit]"
Cc1ccc(S(=O)(=O)NCC(=O)N(CC(=O)NCC2CCCO2)c2cccc(F)c2)cc1 (stereo not given),,"3.26 µM [rising, partial curve]",
COc1ccc(OCC(O)CN2CCN(CC(O)COc3ccc(OC)cc3)CC2)cc1 (stereo not given),38.5,"29.1 µM [rising, single point]",
COc1ccc(-n2c(COc3cccc(C)c3)n[nH]c2=S)cc1,16.4,"0.00411 µM [rising, full curve, poor fit]","29.1 µM [rising, single point]"
Cc1cccc(COCC(Cc2ccccc2)N2CCN(C(=O)c3ccc(Cl)c(Cl)c3)CCC2=O)c1 (stereo not given),17.6,,"9.2 µM [falling, partial curve, poor fit]"
COC(=O)c1ccc(-n2cnc(Cl)n2)c(F)c1,24.1,"4.11 µM [rising, full curve, poor fit]",
